Results published in PubChem BioAssay AID1347076 (National Center for Advancing Translational Sciences (NCATS), 2019).
Out of some 400,000 compounds screened, about 13,000 (3.2%) were called active. This list was built around the results that the source calls inconclusive (neither active nor inactive); the mix of calls is not that of the screen. Calls come from the whole dose curve; as a rule, active = well fitted cell-killing curve with a large enough effect; inconclusive = small, poorly fitted or top-dose-only effect, or effect the other way; inactive = flat fitted curve, though single readings scatter. Potencies beside an inconclusive call are fits to weak or partial responses and may not hold up.

Experiment: qHTS assay for MDR1-selective chemotherapeutics: Primary screen using the drug-selected MDR subline cells KB-V1; note: nearly all actives have a fitted effect of over 60% in size
Settings: KB-V1 MDR cells viability, CellTiter-Glo, 72 h; activity change, negative = cytotoxicity: at 46.1 µM (top of the series)
Method in brief: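 KB-V1 MDR subline cells in DMEM (phenol-red free, 10% FBS) exposed to compounds in qHTS concentration series for 72 h at 37 degrees C. Viability read by CellTiter-Glo luminescence; concentration-effect curves fitted after normalization and correction.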
% is set by controls: 0 for no effect and ±100 for the full control effect; potency is the fitted concentration of half-maximal effect.

| Structure (SMILES) | Potency | activity change, negative = cytotoxicity |
| --- | --- | --- |
| CCOC(=O)c1cccc(NC(=O)C2CCN(S(=O)(=O)c3c(C)noc3/C=C/c3ccc(C)cc3)CC2)c1 | inactive |  |
| CN1C(=S)N(c2cccnc2)C(=O)/C1=C\c1ccc(C(C)(C)C)cc1 | inconclusive: 29.1 µM [cytotoxic, single point] |  |
| Cc1ccc(NC(=O)c2c(C)nc3sc(C(=O)NC4CCCC4)c(N)c3c2-c2ccco2)c(C)c1 | inactive |  |
| CC(CNC(=O)c1ccc2nc(CCc3ccccc3)oc2c1)c1ccccc1 (configuration not stated) | inactive |  |
| CCn1c(=O)n(-c2ccc3c(c2)OCO3)c2nc(-c3cc(OC)ccc3OC)nc(C(N)=O)c21 | inactive |  |
| C=CCn1c(SCC(=O)Nc2cc(C)on2)nnc1-c1ccncc1 | inconclusive: 10.3 µM [rising, partial curve, poor fit] |  |
| O=C(Cc1ccccc1)Nc1sc2c(c1C(=O)Nc1ccccc1Cl)CCCC2 | inconclusive: 29.1 µM [rising, single point] |  |
| COc1ccc(NC(=O)CSC2=NCCN2)cc1 | inconclusive: 16.4 µM [cytotoxic, single point] |  |
| CCN(CC1COc2ccccc2O1)C(=O)CN1C(=O)NC(C)(c2ccc(C)cc2)C1=O (configuration not stated) | inconclusive: 16.4 µM [cytotoxic, single point] |  |
| CCOc1ccc(CNC(=S)N/N=C/c2ccc(OC)c(OC)c2)cc1 | active: 16.4 µM |  |
| COc1ccc(N2CCN(C(=O)CCc3ccc(S(=O)(=O)NCC(C)C)cc3)CC2)cc1 | inconclusive: 11.6 µM [cytotoxic, partial curve] |  |
| CC(C)(C)n1nnnc1C(c1ccccc1)N1CCN(c2ncc(C(F)(F)F)cc2Cl)CC1 (configuration not stated) | inconclusive: 20.6 µM [cytotoxic, single point] |  |
| COc1ccc(CN2CCC(n3nccc3NC(=O)CCOc3ccccc3)CC2)cc1C | inconclusive: 9.2 µM [cytotoxic, partial curve] |  |
| COc1cccc(Cn2cccc(NC(=O)Nc3cccc(C#N)c3)c2=O)c1 | inconclusive: 3.26 µM [cytotoxic, full curve] |  |
| Cc1ccc(Nc2nc(-c3ccc(S(=O)(=O)N4CCCC4)cc3)cs2)cc1C | active: 2.59 µM |  |
| COc1cc(CN2CC(=O)N(c3ccc(C)cc3)C2=S)cc(OC)c1OC | active: 10.3 µM |  |
| COC(=O)c1ccccc1NC(=O)N(Cc1ccc(C)cc1)Cc1cccn1-c1nnc(N2CCCC2=O)s1 | inconclusive: 29.1 µM [cytotoxic, single point] |  |
| COc1ccc(C)cc1NC(=O)C1CCN(S(=O)(=O)c2cccc3nonc23)CC1 | inconclusive: 16.4 µM [rising, partial curve, poor fit] |  |
| N#Cc1nc(-c2ccco2)oc1NCc1ccco1 | inconclusive: 32.6 µM [cytotoxic, partial curve, poor fit] |  |
| COc1cc(/C=C2\SC(=O)NC2=O)ccc1OCC(=O)N1CCOCC1 | inconclusive: 20.6 µM [rising, single point] |  |
| CS(=O)(=O)N1CCCCC1c1cc(C(=O)NCc2ccccc2)no1 (configuration not stated) | inactive |  |
| CCOC(=O)CC1C(=O)NCCN1C(=O)c1ccc(Cl)c(Cl)c1 (configuration not stated) | inactive |  |
| COc1ccc(CN(C)C(=O)c2ccccc2OCc2c(C)noc2C)c(OC)c1 | inconclusive: 29.1 µM [cytotoxic, single point] |  |

| Structure (SMILES) | Potency | activity change, negative = cytotoxicity |
| --- | --- | --- |
| CCOC(=O)c1[nH]c(C)c(CCC(=O)NCc2ccc(OC(C)C)cc2)c1C | inactive |  |
| CCOc1ccccc1CNC(=O)CCNS(=O)(=O)c1ccc2[nH]c(=O)oc2c1 | inconclusive: 29.1 µM [rising, single point] |  |
| CCC(C)(C)n1nnnc1C(c1ccc(OC)c(OC)c1)N1CCN(c2ccc(OC)cc2)CC1 (configuration not stated) | inconclusive: 7.31 µM [cytotoxic, partial curve, poor fit] |  |
| CCN1C(=O)[C@@H]2[C@H](C1=O)[C@@H]1C(=O)Nc3ccccc3C(=O)N1[C@@H]2c1ccccc1 | inconclusive: 2.59 µM [rising, full curve, poor fit] |  |
| Cc1ccc(C(=O)COC(=O)CCNS(=O)(=O)c2ccccc2F)cc1 | inconclusive: 29.1 µM [rising, single point] |  |
| Cc1sc2ncn(CC(=O)Nc3ccc(C(F)(F)F)cc3)c(=O)c2c1S(=O)(=O)N1CCN(C)CC1 | inconclusive: 29.1 µM [cytotoxic, single point] |  |
| COc1ccc(N(CC(=O)NC2CCCCC2)C(=O)CCC(=O)Nc2nc(C)cs2)cc1 | inconclusive: 0.92 µM [rising, full curve] |  |
| O=C(NNc1nc2cc3c(cc2s1)OCO3)c1ccc(F)cc1 |  | inconclusive: -4.21% |
| CN(CCc1ccccc1)C(c1cc2ccccc2o1)c1nnnn1C(C)(C)C (configuration not stated) | inconclusive: 10.3 µM [cytotoxic, partial curve] |  |
| CCc1ccc(S(=O)(=O)c2cn(CC(=O)Nc3cccc(C)c3)c3ccc(Cl)cc3c2=O)cc1 | inconclusive: 8.2 µM [rising, partial curve] |  |
| CCOC(=O)Cn1c(-c2nonc2NC(=O)c2ccccc2F)nc2ccccc21 | inconclusive: 13 µM [cytotoxic, partial curve] |  |
| CCOc1ccc(OCC(=O)c2c(O)c3ccccc3oc2=O)cc1 | inconclusive: 29.1 µM [cytotoxic, single point] |  |
| CCOc1ccc(NC(=S)N2CCC(NC(=O)c3ccccc3C)CC2)cc1 | inconclusive: 14.6 µM [cytotoxic, partial curve, poor fit] |  |
| COc1cccc(-c2cnc3c(NC(C)=O)cc(-c4ccccc4OC)cn23)c1 | inactive |  |
| CC(C)CN(C(=O)COC(=O)CSc1ccccc1F)c1c(N)n(Cc2ccccc2)c(=O)[nH]c1=O | inconclusive: 8.2 µM [rising, partial curve, poor fit] |  |
| CCN(C[C@H]1N[C@@](CC)(C(=O)OC)[C@H]2C(=O)N(Cc3ccccc3)C(=O)[C@@H]12)C(=O)c1ccc(C(C)(C)C)cc1 | inconclusive: 29.1 µM [cytotoxic, single point] |  |
| Cc1cc(C)cc(N2C(=O)CS(=O)(=O)C23C(=O)N(Cc2ccccc2)c2ccccc23)c1 (configuration not stated) | inconclusive: 13 µM [rising, partial curve, poor fit] |  |
| COc1cc(C(=O)N(C)Cc2cccc(OC)c2OC)ccc1OCC(=O)Nc1cccc(C(F)(F)F)c1 | inconclusive: 16.4 µM [cytotoxic, single point] |  |
| CN1C2=NCCN2C(=O)c2cc(Cl)ccc21 | inactive |  |
| CCN1C(=O)C(Cc2nc3ccccc3c(=O)n2-c2ccccc2)c2ccccc21 (configuration not stated) | active: 4.11 µM |  |
| Cc1nc2ccc(NC(=O)c3ccc4ccccc4n3)cc2s1 | inconclusive: 10.3 µM [cytotoxic, partial curve] |  |
| CC1CC(C)CN(C(=O)CSc2nnc(-c3ccc(F)cc3)o2)C1 (configuration not stated) | inconclusive: 1.64 µM [cytotoxic, partial curve, poor fit] |  |
| CCc1nc(N2CCN(C(=O)c3ccco3)CC2)c2c3c(sc2n1)CCCC3 | inconclusive: 16.4 µM [cytotoxic, partial curve] |  |

Record cards, from the list above:
COc1ccc(N2CCN(C(=O)CCc3ccc(S(=O)(=O)NCC(C)C)cc3)CC2)cc1 is listed as Potency: inconclusive: 11.6 µM [cytotoxic, partial curve]
CCN(CC1COc2ccccc2O1)C(=O)CN1C(=O)NC(C)(c2ccc(C)cc2)C1=O (configuration not stated) is listed as Potency: inconclusive: 16.4 µM [cytotoxic, single point]
Cc1cc(C)cc(N2C(=O)CS(=O)(=O)C23C(=O)N(Cc2ccccc2)c2ccccc23)c1 (configuration not stated) is listed as Potency: inconclusive: 13 µM [rising, partial curve, poor fit]

The list goes on.

| Structure (SMILES) | Potency | activity change, negative = cytotoxicity |
| --- | --- | --- |
| CN(C(=O)COC(=O)CCC(=O)c1ccc(Cl)cc1)c1c(N)n(Cc2ccccc2)c(=O)[nH]c1=O | inconclusive: 1.64 µM [rising, partial curve] |  |
| COc1ccc(-c2cc(C(F)(F)F)nc(SCC(=O)Nc3ccc(C(C)=O)cc3)n2)cc1 | inconclusive: 29.1 µM [cytotoxic, single point] |  |
| COc1ccc(OC)c(/C=N/NC(=O)c2[nH]ncc2Br)c1 | inactive |  |
| CCc1nc(N2CCN(S(=O)(=O)c3ccc(Br)cc3)CC2)c2c(C)c(C)sc2n1 | inconclusive: 20.6 µM [cytotoxic, single point] |  |
| COC(=O)[C@]12CCCCC=C1N(CCc1ccc(OC)c(OC)c1)C(=O)[C@H](CC(=O)NCc1cccs1)C2 | inactive |  |
| COCCNc1nc(SCC(=O)N2CCN(c3ccccc3OC)CC2)nc2ccccc12 | inconclusive: 18.4 µM [cytotoxic, single point] |  |
| Cc1ccccc1OCCNc1cc(N2CC(C)NC(C)C2)ccc1[N+](=O)[O-] (configuration not stated) | active: 20.6 µM |  |
| COc1ccc(C)cc1NC(=O)Nc1ccccc1SC | inconclusive: 20.6 µM [cytotoxic, single point] |  |
| Cc1ccc(S(=O)(=O)c2nc(-c3ccccc3)oc2NCCCN2CCOCC2)cc1 | inactive |  |
| NC(=O)C1CCN(C(=O)c2cc(Cl)c3c(c2)OCCO3)CC1 | inactive |  |
| Cc1cccc(C)c1OCC(=O)Nc1nnc(C2CCCO2)s1 (configuration not stated) | active: 18.4 µM |  |
| CCc1nc2c(OCCC3CCCCC3)cccn2c1N(C)C(=O)C(C)C | inactive |  |
| O=C(/C=C1\NC2(CCCC2)Cc2ccccc21)N1CCOCC1 | inactive |  |
| O=C1C2C(c3ccccc3)CC=CC2[C@H](c2ccc3ccccc3c2)N1Cc1ccccc1 (some centres not stated) | inactive |  |
| Cc1nnc(SCC(=O)NC2CCCCC2)n1-c1ccccc1 | inactive |  |
| O=C1CCCN1c1ccc(S(=O)(=O)NCc2ccco2)cc1 | inconclusive: 29.1 µM [rising, single point] |  |
| COc1ccc2c(c1)c1c(c(=O)n(-c3ccc(C)cc3)c(=O)n1CC(=O)Nc1cc(C)ccc1C)n2C | inactive |  |
| O=S(=O)(c1ccccc1Cl)N1CCCC1c1nc(-c2cccc(Cl)c2)no1 (configuration not stated) | inconclusive: 29.1 µM [cytotoxic, single point] |  |
| Cc1ccccc1-c1nnc(SC(C)C(=O)NC2CCCC2)o1 (configuration not stated) | active: 20.6 µM |  |
| Cc1nc2c(C(=O)NCCC(C)C)cnn2c(C)c1Cc1c(F)cccc1Cl | inconclusive: 29.1 µM [cytotoxic, single point] |  |
| COc1ccc(/C=C2/CCC(CN3CCOCC3)C2=O)cc1 (configuration not stated) | inconclusive: 20.6 µM [cytotoxic, single point] |  |
